In PMC7401386:
Results are given in words; binding and its absence hold for the method and conditions named. Binding seen in cells or lysates may run through a third protein. Sequences can lack the tags named with a protein.

Biological target: T1, Calcium- and integrin-binding protein 1, PA-tagged (mouse) (UniProt Q9Z0F4)
T1 sequence: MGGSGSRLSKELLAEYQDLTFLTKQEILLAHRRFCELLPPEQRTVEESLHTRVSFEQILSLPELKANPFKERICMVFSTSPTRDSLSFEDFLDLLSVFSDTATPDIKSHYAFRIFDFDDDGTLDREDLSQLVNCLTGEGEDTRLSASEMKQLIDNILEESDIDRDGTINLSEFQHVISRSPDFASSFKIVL
Experiment: co-IP; co-expression in HEK293T cells; immunoprecipitation with rat anti-PA antibody; immunoblot with anti-PA and anti-FLAG

B1: CIB4, FLAG-tagged (protein, UniProt Q9D9N5 1-185)
chain: MGQCLRYQMQWEDLEEYQALTFLTRNEILCIHDTFLKLCPSGKHYKEATLTMDQVSSLPALRVNPFRDRICRVFSHDNVFSFEDVLGMASVFSEQACPSLKIEYAFRIYDFNENGFIDEEDLEEIVLRLLKSDDASEDLLMDVMHHVLSESDLDNDSMLSFSEFEHAMAKSPDFMNSFRIHFWGC
binding: no binding
